Source: PubChem BioAssay AID2685 (National Center for Advancing Translational Sciences (NCATS), 2010)
In all, about 320,000 compounds went through this assay and about 2,100 (0.66%) were called active. Inconclusive results, whose numbers are uncertain, are shown with a selection of clear calls. The call rests on the fitted dose curve; in most records, active means well fitted inhibition curve with a large enough effect in the signal ratio, with a control signal flat (not every such curve was filed as active); inconclusive means small, poorly fitted or top-dose-only effect, or effect the other way, or a change in a side signal; inactive means flat fitted curve, though single readings scatter; the % refers to the signal ratio. Potencies of inconclusive entries are doubtful fits and often do not repeat.

Assay: qHTS Assay for Lipid Storage Modulators in Drosophila S3 Cells
Details: BODIPY lipid droplet fluorescence, 18-24 h, cells fed with added oleic acid; lipid storage change, negative = inhibition: at 46.1 µM (top of the series) unless noted
Outline: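 Laser-scanning cytometry quantifies lipid droplet accumulation (500–530 nm total intensity; droplet/cell object ratio) in oleic acid-fed (400 uM added) Drosophila S3 cells treated with a concentration series. 20 uM Triacsin C defined 100% inhibition.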
On the % scale 0 is the no-effect control and ±100 the full control effect; potency means the concentration at half of the fitted maximal effect.

SMILES	lipid storage change, negative = inhibition	Potency	outcome
CC(C)C(=O)NC(=O)[C@@H]1CCCN1C(=O)/C=C/c1ccccc1	inconclusive: 19%		
COc1cccc(NC(=O)n2nc(N)cc2-c2ccc(Cl)cc2)c1	inconclusive: -4.13%		
Cc1ccc(Cn2c(C)c3cnn(CC(=O)NCc4ccccn4)c(=O)c3c2C)cc1	inconclusive: 25.1%		
Nc1nc(CSc2ncn[nH]2)nc(Nc2ccc(F)cc2)n1	inconclusive: 31.9%		
OCC(CBr)(CBr)CBr	inconclusive: 4.5%		
Cn1c(SCC(=O)N2CCOCC2)nnc1-c1ccc(NC(=O)c2ccccc2F)cc1	inconclusive: 21.4%		
Cc1[nH]c2ccccc2c1C(=O)CN1C(=O)C(=O)N(CCC2=CCCCC2)C1=O	inconclusive: 0.141%		
Nc1ncc(Br)cc1S(=O)(=O)NCCc1ccccc1		inconclusive: 6.51 µM [activator, single point]	
O=C(Cc1ccc(O)cc1)NC1CCCCCC1	inconclusive: -17.6%		
COc1cc(NC(=O)CCc2ccccc2)nc(OC)n1		inconclusive: 0.58 µM [activator, full curve]	
CC(=O)NCCc1nc2ccccc2n1CCOc1ccccc1	inactive: 6.98%		
Cc1ccc(/C(O)=C2\C(=O)C(=O)N(C)C2c2ccccc2[N+](=O)[O-])cc1 (stereo not given)		inconclusive: 23.1 µM [falling, single point]	
CC(=O)NN1C(=O)/C(=C2/Sc3ccccc3N2C)SC1=S	inconclusive: 12.6%		
Cc1csc(=Nc2ccccc2)n1C	inconclusive: 36.3%		
Cc1cc(C)c(C(N)=O)c(Nc2ccc(F)cc2)n1		inconclusive: 29.1 µM [activator, single point]	
CCOC(=O)c1[nH]c2ccccc2c1NC(=O)CC(C)(C)C	inconclusive: -14.9%		
O=C(NC1CCCc2c1cnn2-c1ccc(F)cc1F)c1ccccc1N1CCOCC1 (stereo not given)		inconclusive: 29.1 µM [falling, single point]	
COc1ccccc1-c1c(C(F)(F)F)oc2cc(OC(=O)c3cccc([N+](=O)[O-])c3C)ccc2c1=O	inconclusive: -24%		
CC(SCc1cc(=O)n2c([nH]c3ccccc32)c1C#N)C(=O)O (stereo not given)	inconclusive: 0.0719%		
CCOc1ccc(NC(=O)CCC(=O)O)cc1		inconclusive: 0.651 µM [falling, full curve, poor fit]	
CCO[C@H]1OC(C(=O)NCc2ccccc2)=C[C@@H](c2ccc(C(F)(F)F)cc2)[C@@H]1CCCO	inconclusive: -34.4%		
COc1cc2c(cc1OC)CN(C(=O)/C=C/c1cccc([N+](=O)[O-])c1)CC2		inconclusive: 0.206 µM [activator, single point]	
O=C(Nc1ccnn1C1CCN(C2CCOCC2)CC1)c1cccc(F)c1		inconclusive: 3.66 µM [activator, full curve]	
COc1ccc(NC(=O)CCc2ccccc2)cc1S(=O)(=O)N1CCCCC1		inconclusive: 0.058 µM [falling, full curve, poor fit]	
COc1ccc(CN(Cc2cccnc2)S(=O)(=O)c2ccc(-n3cnnn3)c(OC)c2)cc1		inconclusive: 3.66 µM [activator, full curve]	
COC(=O)c1[nH]c2ccc(Br)cc2c1NC(=O)CN1CCN(C2CCCCC2)CC1	inconclusive: -17.6%		
Cc1cccc(N(Cc2cc(=O)[nH]c3ccccc23)C(=O)C(C)C)c1	inactive: -11.5%		

22 of these compounds, set out differently.

| SMILES | lipid storage change, negative = inhibition | Potency | outcome |
| --- | --- | --- | --- |
| Cn1c(SCC(=O)N2CCOCC2)nnc1-c1ccc(NC(=O)c2ccccc2F)cc1 | inconclusive: 21.4% |  |  |
| Cc1[nH]c2ccccc2c1C(=O)CN1C(=O)C(=O)N(CCC2=CCCCC2)C1=O | inconclusive: 0.141% |  |  |
| Nc1ncc(Br)cc1S(=O)(=O)NCCc1ccccc1 |  | inconclusive: 6.51 µM [activator, single point] |  |
| O=C(Cc1ccc(O)cc1)NC1CCCCCC1 | inconclusive: -17.6% |  |  |
| COc1cc(NC(=O)CCc2ccccc2)nc(OC)n1 |  | inconclusive: 0.58 µM [activator, full curve] |  |
| CC(=O)NCCc1nc2ccccc2n1CCOc1ccccc1 | inactive: 6.98% |  |  |
| Cc1ccc(/C(O)=C2\C(=O)C(=O)N(C)C2c2ccccc2[N+](=O)[O-])cc1 (stereo not given) |  | inconclusive: 23.1 µM [falling, single point] |  |
| CC(=O)NN1C(=O)/C(=C2/Sc3ccccc3N2C)SC1=S | inconclusive: 12.6% |  |  |
| Cc1csc(=Nc2ccccc2)n1C | inconclusive: 36.3% |  |  |
| Cc1cc(C)c(C(N)=O)c(Nc2ccc(F)cc2)n1 |  | inconclusive: 29.1 µM [activator, single point] |  |
| CCOC(=O)c1[nH]c2ccccc2c1NC(=O)CC(C)(C)C | inconclusive: -14.9% |  |  |
| O=C(NC1CCCc2c1cnn2-c1ccc(F)cc1F)c1ccccc1N1CCOCC1 (stereo not given) |  | inconclusive: 29.1 µM [falling, single point] |  |
| COc1ccccc1-c1c(C(F)(F)F)oc2cc(OC(=O)c3cccc([N+](=O)[O-])c3C)ccc2c1=O | inconclusive: -24% |  |  |
| CC(SCc1cc(=O)n2c([nH]c3ccccc32)c1C#N)C(=O)O (stereo not given) | inconclusive: 0.0719% |  |  |
| CCOc1ccc(NC(=O)CCC(=O)O)cc1 |  | inconclusive: 0.651 µM [falling, full curve, poor fit] |  |
| CCO[C@H]1OC(C(=O)NCc2ccccc2)=C[C@@H](c2ccc(C(F)(F)F)cc2)[C@@H]1CCCO | inconclusive: -34.4% |  |  |
| COc1cc2c(cc1OC)CN(C(=O)/C=C/c1cccc([N+](=O)[O-])c1)CC2 |  | inconclusive: 0.206 µM [activator, single point] |  |
| O=C(Nc1ccnn1C1CCN(C2CCOCC2)CC1)c1cccc(F)c1 |  | inconclusive: 3.66 µM [activator, full curve] |  |
| COc1ccc(NC(=O)CCc2ccccc2)cc1S(=O)(=O)N1CCCCC1 |  | inconclusive: 0.058 µM [falling, full curve, poor fit] |  |
| COc1ccc(CN(Cc2cccnc2)S(=O)(=O)c2ccc(-n3cnnn3)c(OC)c2)cc1 |  | inconclusive: 3.66 µM [activator, full curve] |  |
| COC(=O)c1[nH]c2ccc(Br)cc2c1NC(=O)CN1CCN(C2CCCCC2)CC1 | inconclusive: -17.6% |  |  |
| Cc1cccc(N(Cc2cc(=O)[nH]c3ccccc23)C(=O)C(C)C)c1 | inactive: -11.5% |  |  |

Following part

SMILES	lipid storage change, negative = inhibition	Potency	outcome
CCCC(=O)Nc1ccc(C(=O)COC(=O)c2c(C)noc2C)cc1	inconclusive		
COc1ccc([C@H]2CC(=O)C=C(c3ccc(C)c([N+](=O)[O-])c3)C2)cc1		inconclusive: 25.9 µM [falling, single point]	
CCOc1ccc(NC(=O)COC(=O)C23CC4CC(CC(C4)C2)C3)c([N+](=O)[O-])c1	inconclusive: -62.3%		
COc1cc(CCC(=O)OCC(=O)Nc2ccc(C)cc2Cl)cc(OC)c1OC	inconclusive: -2.22%		
Cc1cccc(NS(=O)(=O)c2coc(C(N)=O)c2)c1C		inconclusive: 14.6 µM [activator, partial curve, poor fit]	
CC(=O)C1=C(C)NC(=O)NC1c1ccccc1 (stereo not given)		inconclusive: 29.1 µM [activator, single point]	
CCc1nnc(NC(=O)c2cccc(OC)c2)s1	inconclusive: 45.3%		
O=C(Nc1ccnn1C1CCN(Cc2ccc(C#CCCO)cc2)CC1)c1cccc(F)c1	inconclusive: 32.1%		
Oc1csc(Cc2nc(-c3ccc4ccccc4c3)cs2)n1	inconclusive: -5.24%		
Cc1ccc(/C=N/Nc2cc(C)nc(N3CCOCC3)n2)cc1	inconclusive: 25.4%		
CCCCc1ccc(/C(C)=N/NC(=O)C2CCCC2)cc1	inconclusive: 136%		
CSc1nc(Sc2ccc(Cl)cc2)c2ccccc2n1	inconclusive: -12.3%		
Cc1ccc(C2(c3ccccc3)NC(=O)N(CC(=O)NC3CCS(=O)(=O)C3)C2=O)cc1C (stereo not given)	inconclusive: 41.5%		
N#Cc1ccc(C(CC(=O)O)N2Cc3ccccc3C2=O)cc1 (stereo not given)	inactive: 1.6%		
Cc1ccc([N+](=O)[O-])cc1Nc1nc(N2CCOCC2)nc(N2CCOCC2)n1	inconclusive: 0.521%		
COc1cc(NC(=O)C/C(C)=N/NC(=O)C2CCCCC2)c(OC)cc1Cl	inconclusive: 63.4%		
CC1Cc2cc(/C=C3/SC(=S)NC3=O)ccc2O1 (stereo not given)	inconclusive: 32.1%		
O=C(Nc1ccc(NC(=O)c2ccc(Cl)cc2Cl)cc1)c1ccc2c(c1)OCO2		active: 16.4 µM	
COc1cccc(C(=O)Nc2nnc(-c3ccc(Cl)cc3)o2)c1	inconclusive: -18.1%		
CC(C)(C)NS(=O)(=O)c1ccc(NC(=O)CS(=O)(=O)Cc2ccccc2)cc1	inconclusive: -44.9%		
Cc1cccc(N(Cc2ccccc2)C(=O)CCl)c1	inconclusive: 7.06%		
FC(F)(F)c1nnc2ccc(N3CCCCCC3)nn12	inconclusive: -10.2%		
CC1CCN(c2cc(N3CCN(C(=O)c4ccc(F)c(F)c4)CC3)c([N+](=O)[O-])cc2F)CC1		inconclusive: 6.51 µM [falling, single point]	
CC(C)Cc1nnc(NC(=O)C2CCN(C(=O)c3ccc(F)cc3)CC2)s1			inactive [at 46.1 µM]
CC1(C)CC(=O)C=C(OC(=O)c2ccc(Cl)cc2)C1	inconclusive: -33.8%		
CCOc1nc(C)ccc1-c1noc(-c2cccnc2)n1	inconclusive: 32.8%		
O=C(Nc1ccccc1)c1nccn1Cc1ccc(F)cc1	inconclusive: 21.1%		

SMILES	lipid storage change, negative = inhibition	Potency	outcome
O=C(COC(=O)c1cc(=O)c2ccccc2o1)NC1CCCC1	inconclusive: -18.2%		
CC(C)(C)NC(=O)C1CC(=O)N(CCc2ccc(F)cc2)C1 (stereo not given)			inactive [at 46.1 µM]
COc1ccc(Cl)cc1/C=C/c1ccc2cccc(O)c2n1	inconclusive: -28%		
Cc1ccc(C2(C(F)(F)F)NC(=O)N3N=C4CCCCCN4C3=C2C#N)cc1 (stereo not given)		inconclusive: 6.51 µM [falling, partial curve, poor fit]	
CC1(C)C([N+](=O)[O-])C(c2ccc(F)cc2)NC(c2ccc(F)cc2)C1[N+](=O)[O-] (stereo not given)	inactive: 9.03%		
Cc1ccccc1NC(=O)CSc1nc(O)cc(=O)n1C	inconclusive: 13.4%		
COc1ccccc1Nc1nnc(SCc2cc(=O)n3ccsc3n2)s1	inconclusive: 10.4%		
CSCC(=O)N1CCCC(N2CCN(c3cccc(C(F)(F)F)c3)CC2)C1 (stereo not given)		active: 13 µM	
O=C(CNC(=O)c1ccc(Br)cc1)N=Nc1c(O)[nH]c2ccc([N+](=O)[O-])cc12		inconclusive: 29.1 µM [activator, partial curve]	
O=C(NCC1COc2ccccc2O1)c1ccco1 (stereo not given)	inconclusive: 15.8%		
COc1ccc(CNC(=O)C2CSCCS2)cc1 (stereo not given)		inconclusive: 6.51 µM [cytotoxic, single point]	
Cc1ccc(S(=O)(=O)CCSC(=N)N)cc1	inconclusive: -27.7%		
CCC(C)(C)NC(=O)C(c1ccc(OC)cc1)N(C(=O)CCC(=O)Nc1cc(C)on1)C1CC1 (stereo not given)			inactive [at 46.1 µM]
Cc1ccc(S(=O)(=O)N2CCC(C(=O)NNC(=O)c3ccccc3)CC2)cc1	inconclusive: 39.6%		
Cc1cc(C(=O)N2CCN(Cc3ccc4c(c3)OCO4)CC2)cs1		inconclusive: 1.16 µM [activator, single point]	
O=C1/C(=C/c2ccc(O)cc2)SC(=S)N1CC1CCCO1 (stereo not given)		inconclusive: 32.6 µM [falling, single point]	
CN(C)S(=O)(=O)N1CCN(c2ccnc3cc(Cl)ccc23)CC1		inconclusive: 16.4 µM [falling, single point]	
Cn1c(=O)c2c(nc(CN3CCC(C(N)=O)CC3)n2CCc2ccccc2)n(C)c1=O	inconclusive: 32.4%		
O=c1oc2c3c(nn2c2ccccc12)CCCC3	inconclusive: -30.2%		
O=C(COc1ccc(Br)cc1F)NC1CCN(Cc2ccccc2)CC1	inconclusive: 123%		
Cc1ccc(N2CCN(C(=O)CCc3nc4ccccc4[nH]3)CC2)c(C)c1		inconclusive: 29.1 µM [falling, single point]	
O=C(O)c1cccc(Nc2ncnc3ccc(Br)cc23)c1	inactive: -2.57%		
C/C(=C\c1ccccc1)C(=O)NCCN1CCOCC1	inconclusive: -40.5% [cytotoxic] [at 0.00295 µM]		
CN1CCC(=NNC(=O)C(=O)Nc2ccc(F)cc2)CC1	inconclusive: 3.79%		
COC(=O)c1cc(NC(=O)CN(C)Cc2ccccc2)cc(C(=O)OC)c1		inconclusive: 6.51 µM [cytotoxic, single point]	
COc1ccc(-n2nc3c(c2NC(=O)c2ccccc2S(=O)(=O)C(F)F)CS(=O)(=O)C3)cc1		inconclusive: 29.1 µM [activator, single point]	
